# Results are given in words; binding and its absence hold for the method and conditions named. For some of these results: Binding seen in cells or lysates may run through a third protein. Some binding calls cover weakened binding; strength is not graded here. For some of these results: Sequences can lack the tags named with a protein.
# T1: hnRNP L^Y257A RRM2 (human) (UniProt P14866)
# T1 sequence: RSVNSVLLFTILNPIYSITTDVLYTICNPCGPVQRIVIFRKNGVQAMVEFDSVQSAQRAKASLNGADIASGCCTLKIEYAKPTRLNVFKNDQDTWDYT
# T2: Halo-SETD2C (1404–2564) (human) (UniProt Q9BYW2)
# T2 sequence: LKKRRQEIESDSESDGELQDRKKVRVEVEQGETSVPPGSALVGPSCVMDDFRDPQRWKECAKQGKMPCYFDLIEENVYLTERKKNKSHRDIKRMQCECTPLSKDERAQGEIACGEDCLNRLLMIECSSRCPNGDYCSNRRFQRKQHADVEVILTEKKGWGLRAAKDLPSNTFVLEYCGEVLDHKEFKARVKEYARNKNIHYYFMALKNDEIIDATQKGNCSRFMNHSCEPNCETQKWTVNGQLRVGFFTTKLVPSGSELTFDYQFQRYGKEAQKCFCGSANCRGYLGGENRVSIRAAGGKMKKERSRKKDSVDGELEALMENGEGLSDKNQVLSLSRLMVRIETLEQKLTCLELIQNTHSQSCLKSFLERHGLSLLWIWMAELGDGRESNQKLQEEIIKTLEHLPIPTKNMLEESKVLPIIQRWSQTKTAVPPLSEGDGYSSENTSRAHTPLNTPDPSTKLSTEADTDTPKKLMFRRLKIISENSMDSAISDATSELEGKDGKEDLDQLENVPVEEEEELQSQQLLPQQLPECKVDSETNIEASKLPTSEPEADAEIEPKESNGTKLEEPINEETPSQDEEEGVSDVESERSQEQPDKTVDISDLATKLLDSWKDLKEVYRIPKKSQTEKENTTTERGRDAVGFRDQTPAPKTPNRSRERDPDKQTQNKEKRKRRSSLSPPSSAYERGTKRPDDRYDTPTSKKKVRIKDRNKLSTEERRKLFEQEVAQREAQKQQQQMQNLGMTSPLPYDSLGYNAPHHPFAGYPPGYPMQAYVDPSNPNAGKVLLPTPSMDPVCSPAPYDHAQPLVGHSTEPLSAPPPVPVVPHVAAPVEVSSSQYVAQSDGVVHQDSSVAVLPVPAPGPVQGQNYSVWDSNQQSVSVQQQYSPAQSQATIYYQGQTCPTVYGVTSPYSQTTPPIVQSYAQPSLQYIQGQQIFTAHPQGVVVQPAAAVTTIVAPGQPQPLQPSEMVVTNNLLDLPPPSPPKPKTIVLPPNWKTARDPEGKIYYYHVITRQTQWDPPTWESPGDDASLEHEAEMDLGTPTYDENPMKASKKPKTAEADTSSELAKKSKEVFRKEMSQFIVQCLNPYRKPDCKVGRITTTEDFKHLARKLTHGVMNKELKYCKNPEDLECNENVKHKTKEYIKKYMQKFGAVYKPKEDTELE
# T3: hnRNP L RRM2 (residues 189-286) (human, UniProt P14866 189-286)
# T3 construct: hnRNP L, human, RRM2 fragment, residues 189-286, amplified from a human brain cDNA library; Cloned into a modified pET28a vector without a thrombin cleavage site (p28a); also called hnRNP L RRM2 WT; source: E. coli BL21 (DE3), purified (Ni-NTA, size-exclusion chromatography)
# T3 sequence (looked up): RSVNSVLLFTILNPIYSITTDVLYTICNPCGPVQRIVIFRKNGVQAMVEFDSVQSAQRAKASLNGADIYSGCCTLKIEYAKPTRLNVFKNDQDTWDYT
# T4: Halo-ySet2 (yeast) (UniProt P46995)
# T4 sequence: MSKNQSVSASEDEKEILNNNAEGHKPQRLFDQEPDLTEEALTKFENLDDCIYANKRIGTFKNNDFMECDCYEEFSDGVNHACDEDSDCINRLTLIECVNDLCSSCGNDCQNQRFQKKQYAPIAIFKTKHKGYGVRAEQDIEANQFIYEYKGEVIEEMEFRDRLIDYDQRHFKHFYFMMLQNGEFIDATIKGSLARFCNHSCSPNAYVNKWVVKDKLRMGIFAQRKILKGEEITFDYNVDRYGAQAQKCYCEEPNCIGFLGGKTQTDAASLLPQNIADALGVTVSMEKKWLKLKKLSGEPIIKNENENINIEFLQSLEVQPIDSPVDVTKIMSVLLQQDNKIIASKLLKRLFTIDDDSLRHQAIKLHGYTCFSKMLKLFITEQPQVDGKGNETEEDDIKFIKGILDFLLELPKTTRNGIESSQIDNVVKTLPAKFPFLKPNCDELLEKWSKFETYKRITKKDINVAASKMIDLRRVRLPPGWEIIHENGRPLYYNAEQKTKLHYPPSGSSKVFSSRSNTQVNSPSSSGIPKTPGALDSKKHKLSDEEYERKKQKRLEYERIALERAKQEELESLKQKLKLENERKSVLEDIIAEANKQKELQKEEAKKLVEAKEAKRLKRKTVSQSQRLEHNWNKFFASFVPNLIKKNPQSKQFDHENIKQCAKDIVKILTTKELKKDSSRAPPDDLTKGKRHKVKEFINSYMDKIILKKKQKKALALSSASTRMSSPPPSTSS
# T5: hnRNP L RRM2 Y257A (human) (UniProt P14866)
# T5 sequence: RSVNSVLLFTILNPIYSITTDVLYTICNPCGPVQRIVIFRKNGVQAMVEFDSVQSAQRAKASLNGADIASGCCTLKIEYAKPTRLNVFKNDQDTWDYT
# Tests used:
# [1] = target: T1, hnRNP L^Y257A RRM2 (human); assay: condition: about 600 µM peptide titrated into about 50 µM protein; ITC; SETD2 peptide (about 600 µM, syringe) titrated into the protein (about 50 µM, sample pool); 20 °C; MicroCal PEAQ-ITC; one-site binding model; three independent titrations; both purified
# [2] = target: T2, Halo-SETD2C (1404–2564) (human); assay: pull-down; Halo-tagged bait and tagged prey (mCherry-HA or GFP-FLAG) co-expressed in 293T cells; Halo affinity purification from extracts; western blotting of input and eluate
# [3] = target: T3, hnRNP L RRM2 (residues 189-286); assay: condition: about 600 µM peptide in the syringe, about 50 µM protein in the cell; ITC; SETD2 peptides (about 600 µM, syringe) titrated into hnRNP L / hnRNP LL proteins (about 50 µM, cell); 20 °C; Microcal PEAQ-ITC; one-site binding model; mean of three independent experiments; both purified
# Halo-ySet2 (yeast) = target: T4, Halo-ySet2 (yeast); assay: pull-down; Halo-tagged bait expressed in 293T cells, captured from extracts on Magne HaloTag beads (wash 300 mM NaCl), eluted with TEV protease; endogenous preys seen by western blotting and silver staining; for SETD2CΔSRI with and without RNase treatment
# [4] = target: T5, hnRNP L RRM2 Y257A (human); assay: condition: about 600 µM peptide in the syringe, about 50 µM protein in the cell; ITC; SETD2 peptides (about 600 µM, syringe) titrated into hnRNP L / hnRNP LL proteins (about 50 µM, cell); 20 °C; Microcal PEAQ-ITC; one-site binding model; mean of three independent experiments; both purified
binder,measurement,setting,value
"YPPGYPMQAYVDPSNPNAGKVLLPTP (peptide, UniProt Q9BYW2 2167-2192) [SETD2^2167-2192 peptide]",binding,[1],no binding
"mCherry-HA-hnRNP L FL (WT) (protein, UniProt P14866 1-589) MSRRLLPRAEKRRRRLEQRQQPDEQRRRSGAMVKMAAAGGGGGGGRYYGGGSEGGRAPKRLKTDNAGDQHGGGGGGGGGAGAAGGGGGGENYDDPHKTPASPVVHIRGLIDGVVEADLVEALQEFGPISYVVVMPKKRQALVEFEDVLGACNAVNYAADNQIYIAGHPAFVNYSTSQKISRPGDSDDSRSVNSVLLFTILNPIYSITTDVLYTICNPCGPVQRIVIFRKNGVQAMVEFDSVQSAQRAKASLNGADIYSGCCTLKIEYAKPTRLNVFKNDQDTWDYTNPNLSGQGDPGSNPNKRQRQPPLLGDHPAEYGGPHGGYHSHYHDEGYGPPPPHYEGRRMGPPVGGHRRGPSRYGPQYGHPPPPPPPPEYGPHADSPVLMVYGLDQSKMNCDRVFNVFCLYGNVEKVKFMKSKPGAAMVEMADGYAVDRAITHLNNNFMFGQKLNVCVSKQPAIMPGQSYGLEDGSCSYKDFSESRNNRFSTPEQAAKNRIQHPSNVLHFFNAPLEVTEENFFEICDELGVKRPSSVKVFSGKSERSSSGLLEWESKSDALETLGFLNHYQMKNPNGPYPYTLKLCFSTAQHAS",binding,[2],binds
"RNKLSTEERRKLFEQEVAQREAQKQQQQ (peptide, UniProt Q9BYW2 2113-2140) [SETD2 2113–2140 fragment]",binding,[3],no binding
"hnRNP LL (endogenous) (protein, UniProt Q8WVV9 1-542) MSSSSSSPRETYEEDREYESQAKRLKTEEGEIDYSAEEGENRREATPRGGGDGGGGGRSFSQPEAGGSHHKVSVSPVVHVRGLCESVVEADLVEALEKFGTICYVMMMPFKRQALVEFENIDSAKECVTFAADEPVYIAGQQAFFNYSTSKRITRPGNTDDPSGGNKVLLLSIQNPLYPITVDVLYTVCNPVGKVQRIVIFKRNGIQAMVEFESVLCAQKAKAALNGADIYAGCCTLKIEYARPTRLNVIRNDNDSWDYTKPYLGRRDRGKGRQRQAILGEHPSSFRHDGYGSHGPLLPLPSRYRMGSRDTPELVAYPLPQASSSYMHGGNPSGSVVMVSGLHQLKMNCSRVFNLFCLYGNIEKVKFMKTIPGTALVEMGDEYAVERAVTHLNNVKLFGKRLNVCVSKQHSVVPSQIFELEDGTSSYKDFAMSKNNRFTSAGQASKNIIQPPSCVLHYYNVPLCVTEETFTKLCNDHEVLTFIKYKVFDAKPSAKTLSGLLEWECKTDAVEALTALNHYQIRVPNGSNPYTLKLCFSTSSHL",binding,Halo-ySet2 (yeast),no binding
"mCherry-HA-hnRNP L 322–589 (domain or fragment, UniProt P14866 322-589) GGYHSHYHDEGYGPPPPHYEGRRMGPPVGGHRRGPSRYGPQYGHPPPPPPPPEYGPHADSPVLMVYGLDQSKMNCDRVFNVFCLYGNVEKVKFMKSKPGAAMVEMADGYAVDRAITHLNNNFMFGQKLNVCVSKQPAIMPGQSYGLEDGSCSYKDFSESRNNRFSTPEQAAKNRIQHPSNVLHFFNAPLEVTEENFFEICDELGVKRPSSVKVFSGKSERSSSGLLEWESKSDALETLGFLNHYQMKNPNGPYPYTLKLCFSTAQHAS",binding,[2],no binding
"mCherry-HA-hnRNP L FL I256A Y257A (protein, UniProt P14866 1-589) MSRRLLPRAEKRRRRLEQRQQPDEQRRRSGAMVKMAAAGGGGGGGRYYGGGSEGGRAPKRLKTDNAGDQHGGGGGGGGGAGAAGGGGGGENYDDPHKTPASPVVHIRGLIDGVVEADLVEALQEFGPISYVVVMPKKRQALVEFEDVLGACNAVNYAADNQIYIAGHPAFVNYSTSQKISRPGDSDDSRSVNSVLLFTILNPIYSITTDVLYTICNPCGPVQRIVIFRKNGVQAMVEFDSVQSAQRAKASLNGADAASGCCTLKIEYAKPTRLNVFKNDQDTWDYTNPNLSGQGDPGSNPNKRQRQPPLLGDHPAEYGGPHGGYHSHYHDEGYGPPPPHYEGRRMGPPVGGHRRGPSRYGPQYGHPPPPPPPPEYGPHADSPVLMVYGLDQSKMNCDRVFNVFCLYGNVEKVKFMKSKPGAAMVEMADGYAVDRAITHLNNNFMFGQKLNVCVSKQPAIMPGQSYGLEDGSCSYKDFSESRNNRFSTPEQAAKNRIQHPSNVLHFFNAPLEVTEENFFEICDELGVKRPSSVKVFSGKSERSSSGLLEWESKSDALETLGFLNHYQMKNPNGPYPYTLKLCFSTAQHAS",binding,[2],no binding
"YPPGYPMQAYVDPSNPNAGKVLLPTP (peptide, UniProt Q9BYW2 2167-2192) [SETD2 2167–2192 peptide]",binding,[4],no binding

# Reference: publication PMC8575775, “Structural basis of the interaction between SETD2 methyltransferase and hnRNP L paralogs for governing co-transcriptional splicing” (Nature Communications, 2021)
